{"source": "PubChem BioAssay AID652272 | Drosophila RNAi Screening Center – 2013", "screen": "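Finding fly genes that regulate Hedgehog signal transduction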 (primary screen)", "cells": "Drosophila clone 8 (Cl8) cells", "reagent": "long dsRNA against Drosophila genes", "read-out": "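Firefly light from a Hedgehog-responsive ptc promoter reporter and Renilla reference light, both read on a plate reader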", "direction": "firefly Hh reporter signal: higher = more ptc reporter light; Renilla reference signal: higher = more Renilla control light", "rule for the call": "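Called a hit if the two-replicate mean z-score lies below -2 or above +3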", "calls": "active = hit: reporter lowered or raised; inactive = not a hit", "note": "The screen tested about 21,000 reagents; below is an unselected part of those with a known target gene and a result. Of all reagents, 503 (2.4%) were called active. 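Raw plate light values, not normalised; calls rest on replicate z-scores that were not deposited; hits include reporter decreases as well as increases.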 Not stated in the record: the amount of reagent, the time to read-out."}
{"target": "CG42335", "dsRNA": "DRSC14597", "firefly Hh reporter signal, replicate 1": 8.56e5, "firefly Hh reporter signal, replicate 2": 1.65e5, "Renilla reference signal, replicate 1": 40261, "Renilla reference signal, replicate 2": 2656, "Outcome": "inactive"}
{"target": "CG42335", "dsRNA": "DRSC15892", "firefly Hh reporter signal, replicate 1": 8.54e5, "firefly Hh reporter signal, replicate 2": 1.70e5, "Renilla reference signal, replicate 1": 36643, "Renilla reference signal, replicate 2": 3357, "Outcome": "inactive"}
{"target": "oxt (peptide O-xylosyltransferase)", "dsRNA": "DRSC08522", "firefly Hh reporter signal, replicate 1": 1.08e5, "firefly Hh reporter signal, replicate 2": 1.02e5, "Renilla reference signal, replicate 1": 4896, "Renilla reference signal, replicate 2": 4304, "Outcome": "inactive"}
{"target": "Arp3 (Actin-related protein 3)", "dsRNA": "DRSC09669", "firefly Hh reporter signal, replicate 1": 1.60e5, "firefly Hh reporter signal, replicate 2": 83687, "Renilla reference signal, replicate 1": 7408, "Renilla reference signal, replicate 2": 3846, "Outcome": "inactive"}
{"target": "gudu", "dsRNA": "DRSC02820", "firefly Hh reporter signal, replicate 1": 1.45e5, "firefly Hh reporter signal, replicate 2": 76033, "Renilla reference signal, replicate 1": 3667, "Renilla reference signal, replicate 2": 7522, "Outcome": "inactive"}
{"target": "Agps (Alkylglycerone phosphate synthase)", "dsRNA": "DRSC05984", "firefly Hh reporter signal, replicate 1": 71776, "firefly Hh reporter signal, replicate 2": 51712, "Renilla reference signal, replicate 1": 2085, "Renilla reference signal, replicate 2": 4092, "Outcome": "inactive"}
{"target": "CG15930", "dsRNA": "DRSC18107", "firefly Hh reporter signal, replicate 1": 62992, "firefly Hh reporter signal, replicate 2": 1.92e5, "Renilla reference signal, replicate 1": 1770, "Renilla reference signal, replicate 2": 7745, "Outcome": "inactive"}
{"target": "CG42810", "dsRNA": "DRSC02533", "firefly Hh reporter signal, replicate 1": 87066, "firefly Hh reporter signal, replicate 2": 43325, "Renilla reference signal, replicate 1": 2391, "Renilla reference signal, replicate 2": 4073, "Outcome": "inactive"}
{"target": "Ge-1", "dsRNA": "DRSC02938", "firefly Hh reporter signal, replicate 1": 47499, "firefly Hh reporter signal, replicate 2": 74985, "Renilla reference signal, replicate 1": 2235, "Renilla reference signal, replicate 2": 3387, "Outcome": "inactive"}
{"target": "ppk9 (pickpocket 9)", "dsRNA": "DRSC04134", "firefly Hh reporter signal, replicate 1": 1.00e5, "firefly Hh reporter signal, replicate 2": 57461, "Renilla reference signal, replicate 1": 2807, "Renilla reference signal, replicate 2": 5472, "Outcome": "inactive"}
{"target": "ppk9 (pickpocket 9)", "dsRNA": "DRSC04135", "firefly Hh reporter signal, replicate 1": 90885, "firefly Hh reporter signal, replicate 2": 52706, "Renilla reference signal, replicate 1": 2564, "Renilla reference signal, replicate 2": 4842, "Outcome": "inactive"}
{"target": "CG14567", "dsRNA": "DRSC11728", "firefly Hh reporter signal, replicate 1": 1.15e5, "firefly Hh reporter signal, replicate 2": 1.18e5, "Renilla reference signal, replicate 1": 3799, "Renilla reference signal, replicate 2": 6423, "Outcome": "inactive"}

As entered above:
Value for Ge-1 [DRSC02938] under “firefly Hh reporter signal, replicate 1”: 47499
For “firefly Hh reporter signal, replicate 2”, gudu [DRSC02820] reads 76033
